Assay: Body weight of experimental animals
Assay type: in vivo
Conditions: male Swiss albino mice, per treatment group, n=6

Row | Compound | Body weight
1 | CCCCCCCCCCCCCCCC(=O)NCCO [Composition P3A, palmitoylethanolamide] | 32.20 ± 0.52 gms
2 | CC(C)C[C@H](CN)CC(=O)O [Pregabalin (LYRICA ®) 75 mg, Pregabalin, reference compound] | 30.87 ± 0.37 gms
